These are yes or no findings as the source states them, for the method shown. Binding calls can cover weak binding; strength is not graded here. Where a sequence is shown, tags or fusion partners need not be part of it.

This assay deals with T1, MBP-RU678 (human).
T1 sequence: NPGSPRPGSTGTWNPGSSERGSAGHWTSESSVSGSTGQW
The assay can be described thus: ELISA; fibrinogen (0.1 μM), MBP-fused fibrinogen fragments or casein blocking reagent immobilised in 96-well plates overnight at 4 °C; FLAG-tagged Srr-BR in PBS-T added, 1 h at 37 °C; detected with mouse anti-FLAG antibody; both purified.

As to “FLAG-tagged binding region of Srr1 (FLAG-Srr1-BR) (domain or fragment)”, the binding entry is “binds”. Regarding “FLAG-tagged binding region of Srr2 (FLAG-Srr2-BR) (Streptococcus agalactiae (strain COH1)) (domain or fragment)”, the binding entry is “binds”.

The values above are taken from article PMC3861647.
